Measurements as given in patent US20120149635A1.
Positions count from the first letter of the chain named. Results are given in words; binding and its absence hold for the method and conditions named. Some binding calls cover weakened binding; strength is not graded here.

B1: UGP269 (SEQ ID NO:12) (peptide)
peptide: CSNLSTCVLGKLSQELHKLQTYPRTNTGSNTY
B2: UGP 271 (SEQ ID NO:13) (peptide)
peptide: B1 peptide with N26D, T27V, S29A
B3: UGP281 (SEQ ID NO:14) (peptide)
peptide: B1 peptide with N26D, T27V, S29A
modifications: acylated at the N-terminus with acetate (acetyl group on cysteine-1)
B4: salmon calcitonin (peptide)
peptide: B1 peptide with N30G, Y32P

molecular target: T1, calcitonin receptor on T47D cells (UniProt P30988); test: assay that measures binding to calcitonin receptors on T47D cells
T1 sequence (looked up): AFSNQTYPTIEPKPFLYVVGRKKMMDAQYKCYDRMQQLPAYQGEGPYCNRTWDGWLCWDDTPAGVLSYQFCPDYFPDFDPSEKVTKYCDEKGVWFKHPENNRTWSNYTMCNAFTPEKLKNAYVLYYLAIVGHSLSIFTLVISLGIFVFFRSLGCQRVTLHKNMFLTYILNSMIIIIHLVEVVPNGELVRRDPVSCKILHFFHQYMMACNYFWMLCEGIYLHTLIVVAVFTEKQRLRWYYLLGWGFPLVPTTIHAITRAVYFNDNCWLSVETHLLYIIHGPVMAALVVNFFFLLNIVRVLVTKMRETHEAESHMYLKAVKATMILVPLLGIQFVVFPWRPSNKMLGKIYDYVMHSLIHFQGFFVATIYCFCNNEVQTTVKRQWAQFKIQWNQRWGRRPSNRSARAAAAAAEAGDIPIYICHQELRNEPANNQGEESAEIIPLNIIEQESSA

Binder	binding
B1	binds
B2	binds
B3	binds
B4	binds

molecular target: T1, calcitonin receptor on T47D cells; test: binding to calcitonin receptors on T47D cells (FIG. 4)

Binder	binding
B1	binds
B2	binds
B3	binds
B4	binds
